Test results from US6626844B1, “Method and composition for inhibition of nitric oxide production in the oral cavity” (Aerocrine AB, priority 1998, dated 2003).

Legend:
NO in exhaled air = assay: Mouthwashes and NO in exhaled air; format: in vivo, humans
Text: Ten healthy non-smoking subjects, age 23-43, were included in the study. The NO measurements were made with a chemiluminescense technique according to the recommendations recently described in the ERS Task Force Report (Kharitonov et al., 1997). The values of NO concentration were then registered in a computer software program together with the values of flow and pressure, measured with a pneunotachygraf, and calculations of these parameters were presented on a screen.
The following describes briefly the “single-breath” method for orally exhaled air. Compressed NO free air was continuously flowing into a non-diffusing gas collection bag, 100 l capacity (Hans Rudolph Inc.), at a rate of 2-3 l/min. The bag was connected via a tube to a Y-piece with a one-way valve, which in turn was adapted to a mouthpiece. Before the measurements the subjects inhaled NO free air through the mouthpiece and were asked to hold their breath for 10 s while they put their tongue into the mouthpiece's opening, in order to prevent NO from diffusing out. Then the subjects exhaled through the mouthpiece at a flow rate of about 0.15 l/s against a resistance of 50 cmH2O/l/s (Hans Rudolph Inc.), giving rise to an oral pressure of 8-10 cmH2O, for a period of 20 s. The exhaled air went out through the other one-way valve in the Y-piece leading on to a linear pneumotachymeter (Hans Rudolph Inc.), where the values of flow and pressure were registered and transformed into digital signals recorded by a computer software program (Medical Breath Analyser™ from Aerocrine AB, Sweden). […] The detected NO levels were passed on to the computer and integrated with the figures for flow and pressure for calculation of NO release rate (pmol/s) and NO amount (pmol). NO release was calculated by the formula: NO-conc×Q=pmol/s×l/s=pmol/s. […] In addition to the curves for flow and pressure two curves for NO concentration and NO release were plotted on the screen and calculated mean values were presented for the last 40% of the breath, representing the plateau phase. […]

[1] = Nitrate and nitrite concentration in saliva after nitrate loading; format: in vivo, humans

In the case of O=C1O[C@H]([C@@H](O)CO)C(O)=C1O [ascorbic acid], the “duration of effect on peak concentrations” value (NO in exhaled air; after mouthwash) is reported as “up to 180 s” and the “time after which plateau levels were back to normal” value (NO in exhaled air; after mouthwash) is reported as 120 s.
For O=N[O-].[K+] [nitrite solution, potassium nitrite], the “duration of elevated NO, plateau and peak” value (NO in exhaled air; after 10 mM nitrite mouthwash) was greater than 240 s.
For O=[N+]([O-])[O-].[K+] [potassium nitrate], the “nitrate concentration in saliva” value ([1]; 60 min after ingestion of 400 mg potassium nitrate, baseline 0.40±0.21, n=7) was 4.00 ± 0.69 mM, the “increase of nitrate concentration in saliva” value ([1]; 60 min after nitrate ingestion) was 10 fold and the “nitrate concentration in saliva” value ([1]; 120 min after nitrate ingestion) was 2.92 ± 0.48 mM. For the same compound, the “nitrite concentration in saliva” value ([1]; 120 min after nitrate load (peak), baseline 0.37±0.09) was 1.56 ± 0.44 mM.
